# Values from PubChem BioAssay AID504804 (Drosophila RNAi Screening Center, 2011)
# Assay: 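dsRNAs that improve Kc cell survival under doxorubicin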 (primary screen)
# Cells: Drosophila Kc cells
# Reagents: long dsRNA against Drosophila genes, 0.5 µg dsRNA per well
# Timing: 96 h (48 h knock-down, then 48 h drug)
# Conditions: doxorubicin 5 µg/ml for 48 h, added 48 h after dsRNA
# Measurement: 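Viability measured as cellular ATP by luminescence after 48 h knock-down then 48 h doxorubicin at 5 µg/ml; unnormalised plate counts for each replicate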
# Direction: raw ATP luminescence: higher = more viable cells, protection from doxorubicin
# Hit rule: 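z-score of 2 or more over plate mean in both duplicates, retained only when retests and separate dsRNAs confirm the protection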
# The screen tested about 19,000 reagents; this is an unselected part of those that have a named target and a result. Over the whole deposit, 47 (0.25%) were called active. 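Signals are raw, not normalised; exact z-scores behind calls not deposited; actives needed confirmation, so some wells reaching 2 SD are inactive.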 A plus sign joins genes that one reagent is predicted to hit. No sequences are given here.
gene,amplicon,"raw ATP luminescence, replicate 1","raw ATP luminescence, replicate 2",Call
CG42735 (retired record),DRSC00921,2.80e5,3.28e5,inactive
CG5180,DRSC15731,46270,51140,inactive
CG10332 (retired record) + IM18,DRSC04064,61447,52343,inactive
CG11141,DRSC06048,81593,58097,inactive
beta4GalNAcTA,DRSC05944,2.13e5,2.27e5,inactive
key,DRSC04285,73443,43613,inactive
CG2955,DRSC00552,94407,85113,inactive
CG1927,DRSC08146,50070,54763,inactive
PK2-R1,DRSC16447,50750,51490,inactive
CG14694,DRSC14917,56197,57940,inactive
CG15375,DRSC18045,25310,44510,inactive
Best1,DRSC16909,59947,42480,inactive
Octbeta1R,DRSC16134,38610,35700,inactive
Cpr78Cc,DRSC11846,53797,56570,inactive

Next part, starting with the last 4 of the part before.
gene,amplicon,"raw ATP luminescence, replicate 1","raw ATP luminescence, replicate 2",Call
CG15375,DRSC18045,25310,44510,inactive
Best1,DRSC16909,59947,42480,inactive
Octbeta1R,DRSC16134,38610,35700,inactive
Cpr78Cc,DRSC11846,53797,56570,inactive
Alp5,DRSC14269,44097,36587,inactive
CG15536,DRSC15072,41080,42840,inactive
cd,DRSC16157,53780,60850,inactive
Cul2,DRSC03710,58103,61267,inactive
CG14196,DRSC19551,3.63e5,3.50e5,inactive
srp,DRSC13125,2.27e5,1.78e5,inactive
srp,DRSC17068,18770,17930,inactive
Muc68E,DRSC09146,1.58e5,1.98e5,inactive
DNAlig3,DRSC15201,64450,57627,inactive
RfC4,DRSC08691,38870,42300,inactive
CG9541,DRSC03257,43370,75363,inactive
Decay,DRSC16930,93410,76850,inactive
CG33308,DRSC01419,2.94e5,2.49e5,inactive
CG7910,DRSC16341,47193,43367,inactive
CG15554,DRSC15092,56830,46630,inactive
CG11920,DRSC14439,30867,29377,inactive
Kdm4A,DRSC06586,60237,66840,inactive
CG11369,DRSC17779,41660,44390,inactive
CSN3,DRSC11859,60343,55793,inactive
Ote,DRSC07498,61140,63423,inactive
